Here are results for 63 substances from the supplement of paper PMC5949888.

± gives the standard deviation of the averaged measurements. Most values lie at the floor of the assay. Slopes are relative: functional sequences can read slightly below zero. Where only a bound is given, the exact number is not on record here.

This series relates to Saccharomyces cerevisiae PS128 hsf1 delta, HSF1(1-493) fusion. Kind of series: growth estimate (transactivation domain function in HSF1 fusion, heat-shock survival) (a.u. (slope of normalised read count over time)); higher = stronger growth at 37°C, i.e. more transactivation activity. The settings on record: library: random library.
In the case of KLIPVRPVVRSQLY, the growth estimate is below -0.25.
LQTPRHNCEMVAHRDFGSWR: the growth estimate was below -0.25.
In the case of AWRPLNCFIVRG, the growth estimate is below -0.25.
RRQFTTLSAKK: the growth estimate is below -0.25.
Regarding GQRLFRAVGSTQDLRLAPYK, the growth estimate is below -0.25.
HWPYARYSMGFL: the growth estimate was below -0.25.
As to MQERG, the growth estimate is below -0.25.
In the case of SPIRRDGSSGSKMTNRNVSR it was below -0.25; in that of LPRLAHL, below -0.25.
For the substance GHIFISHVPVTLLGISKGGS, the growth estimate is below -0.25.
For SLENV, the growth estimate is below -0.25.
With LPVLVPSKREGGSRCHCESR the figure was below -0.25; with HLSAKDRSGEGERVTGRRER, below -0.25.
In the case of LGCVRRWSSIRRALESLYFQ it was below -0.25; in that of IGSCPNTVKPQRIGKVLFQM, below -0.25; in that of RKRRWQVRCFLRVPATSKVN, below -0.25.
Consider IPVRTSFRDGSPASIQASSA, for which the growth estimate was below -0.25.
With PPREVRACPM the figure was below -0.25; with WLGRHVTAVQGKLFASPTGI, below -0.25.
With RGSVRTQKRIS the figure was below -0.25; with LTWR, below -0.25; with GIKGLRLEPAISKGPEASAD, below -0.25.
Take APREPSRGLIIDNSY: the growth estimate is below -0.25.
In the case of GSGVGGSIRKNSYELLWTRW it was below -0.25.
Turning to YVVHYHSGYLMWTNR, the growth estimate was below -0.25.
With FTTGRTLAHCGIALWPHYAY the figure was below -0.25; with CREGRFLTSPGSGIDANQLP, below -0.25; with WEGTVYYRYWVTRPYLARIM, below -0.25.
In the case of GKGLPVTYVRPCNMCGD it was below -0.25.
With GSGSQGVGVLRATYRMC the figure was below -0.25.
Consider GSEPEWNSGYLVVGEGRVPG, for which the growth estimate is below -0.25.
With GGRDADVNTTRGRDGLGMR the figure was below -0.25; with VDVTGRNAHHPKV, below -0.25; with VRRKSLLSAWNSVHQMPHPM, below -0.25.
As for ARHMDHYRIRSALAI, the growth estimate is below -0.25.
On to SVHL, for which the growth estimate was below -0.25.
Turning to ACRGGTIDRKSWPHRGLGSP, the growth estimate is below -0.25.
With QVNRWPDDPARASQMGPLVG the figure was below -0.25.
In the case of EGGAAA it was below -0.25.
As to YNLTGWALSQEGGYSASNAD, the growth estimate is below -0.25.
With NGEVRPDLLPGNGASLSRGS the figure was below -0.25; with VSGEIELTKAPESDMSHLAF, below -0.25; with GELKNAQLLY, below -0.25.
With SIANQGGWYGGVGHRHVFAS the figure was below -0.25; with FGSRHRWT, below -0.25; with LQSCVWGLVGSGAGCSHTPS, below -0.25.
In the case of EGTGWGNI it was below -0.25; in that of RNLYERLIMSRFRHRHLTPG, below -0.25.
Turning to SKRESNQQVGARLRRSGCRV, the growth estimate is below -0.25.
In the case of NIKRRRSCGSSTSAFRLPWI it was below -0.25.
In the case of PRTFRAQIGFRDHVLACVDG it was below -0.25; in that of RYDRRMD, below -0.25; in that of LFI, below -0.25.
Regarding RFS, the growth estimate is -0.00225 ± 0.35.
With VSP, the growth estimate was below -0.25.
With YVPFHGCLC, the growth estimate was below -0.25.
On to ANLELRFIRRLVMGEPRF, for which the growth estimate was below -0.25.
With VERSRG the figure was below -0.25.
In the case of GVGGG it was below -0.25; in that of ACLFKVAPVVRYIGLGSIRW, below -0.25.
Consider GGEDDIICKGLWPIVGGPKE, for which the growth estimate is below -0.25.
On to IDRGGSPWV, for which the growth estimate was below -0.25.
With VVDMWPIRHRKRVGQWMIRS the figure was below -0.25.
